Measurements as given in patent US20090297438A1, “Human Monoclonal Antibodies to Prostate Specific Membrane Antigen (PSMA)” (priority 2005, published 2009).
Results are given in words; binding and its absence hold for the method and conditions named. Some binding calls cover weakened binding; strength is not graded here.

Chains of the proteins cited; added tags and fusions are not shown.
UniProt Q04609: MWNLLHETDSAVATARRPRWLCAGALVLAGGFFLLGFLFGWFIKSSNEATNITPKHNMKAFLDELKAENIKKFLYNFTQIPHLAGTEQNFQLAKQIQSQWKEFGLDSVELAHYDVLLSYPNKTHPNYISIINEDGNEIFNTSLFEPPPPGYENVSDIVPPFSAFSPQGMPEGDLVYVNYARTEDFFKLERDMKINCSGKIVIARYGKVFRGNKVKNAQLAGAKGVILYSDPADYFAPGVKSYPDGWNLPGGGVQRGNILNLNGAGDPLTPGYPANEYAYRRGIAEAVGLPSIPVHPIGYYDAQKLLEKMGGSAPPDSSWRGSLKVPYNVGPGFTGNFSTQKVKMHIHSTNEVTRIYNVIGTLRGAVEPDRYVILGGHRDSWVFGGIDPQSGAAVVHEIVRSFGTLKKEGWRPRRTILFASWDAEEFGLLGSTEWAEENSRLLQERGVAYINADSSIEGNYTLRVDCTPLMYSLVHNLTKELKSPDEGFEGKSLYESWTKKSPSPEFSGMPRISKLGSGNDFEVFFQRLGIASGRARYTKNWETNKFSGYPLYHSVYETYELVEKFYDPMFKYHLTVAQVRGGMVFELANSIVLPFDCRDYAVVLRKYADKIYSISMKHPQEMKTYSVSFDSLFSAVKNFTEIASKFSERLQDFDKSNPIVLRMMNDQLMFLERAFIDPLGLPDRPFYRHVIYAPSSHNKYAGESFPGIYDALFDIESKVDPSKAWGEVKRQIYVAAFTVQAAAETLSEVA

Legend:
[1] = target: human prostate specific membrane antigen (PSMA) on LNCaP prostate cancer cells (human) (UniProt Q04609); assay: flow cytometry on LNCaP cells
[2] = target: PSMA immunopurified from LNCaP cells (human) (UniProt Q04609); assay: ELISA on PSMA purified from LNCaP cells
[3] = target: human prostate specific membrane antigen (PSMA) on LNCaP prostate cancer cells (human) (UniProt Q04609); assay: flow cytometry on LNCaP cells, FITC anti-human IgG detection
[4] = target: PSMA immunopurified from LNCaP cells (human) (UniProt Q04609); assay: ELISA on immunopurified PSMA, antibody from 5 ug/ml in 1:2 dilutions
[5] = target: human prostate specific membrane antigen (PSMA) on LNCaP prostate cancer cells (human) (UniProt Q04609); assay: flow cytometry on LNCaP cells, FITC-labeled anti-human IgG detection
[6] = target: PSMA immunopurified from LNCaP cells (human) (UniProt Q04609); assay: ELISA on PSMA immunopurified from LNCaP cells, HRP goat anti-human IgG (kappa chain-specific) detection

Measured: binding

B1: anti-PSMA human monoclonal antibody 2F5 (antibody, V domains shown)
VH: EVQLVQSGAEVKKPGESLKISCKGSGYSFTSNWIGWVRQMPGKGLEWMGIIYPGDSDTRYSPSFQGQVTISADKSISTAYLQWNSLKASDTAMYYCARQTGFLWSFDLWGRGTLVTVSS
VL: AIQLTQSPSSLSASVGDRVTITCRASQDISSALAWYQQKPGKAPKLLIYDASSLESGVPSRFSGSGSGTDFTLTISSLQPEDFATYYCQQFNSYPLTFGGGTKVEIKI
binds: [1] | [2] | [3] | [4] | [5] | [6]
